Consider 3 substances from publication PMC6240029.

Protein sequences, listed by entry. Tags and fused reporters are not part of them.
UniProt Q61315: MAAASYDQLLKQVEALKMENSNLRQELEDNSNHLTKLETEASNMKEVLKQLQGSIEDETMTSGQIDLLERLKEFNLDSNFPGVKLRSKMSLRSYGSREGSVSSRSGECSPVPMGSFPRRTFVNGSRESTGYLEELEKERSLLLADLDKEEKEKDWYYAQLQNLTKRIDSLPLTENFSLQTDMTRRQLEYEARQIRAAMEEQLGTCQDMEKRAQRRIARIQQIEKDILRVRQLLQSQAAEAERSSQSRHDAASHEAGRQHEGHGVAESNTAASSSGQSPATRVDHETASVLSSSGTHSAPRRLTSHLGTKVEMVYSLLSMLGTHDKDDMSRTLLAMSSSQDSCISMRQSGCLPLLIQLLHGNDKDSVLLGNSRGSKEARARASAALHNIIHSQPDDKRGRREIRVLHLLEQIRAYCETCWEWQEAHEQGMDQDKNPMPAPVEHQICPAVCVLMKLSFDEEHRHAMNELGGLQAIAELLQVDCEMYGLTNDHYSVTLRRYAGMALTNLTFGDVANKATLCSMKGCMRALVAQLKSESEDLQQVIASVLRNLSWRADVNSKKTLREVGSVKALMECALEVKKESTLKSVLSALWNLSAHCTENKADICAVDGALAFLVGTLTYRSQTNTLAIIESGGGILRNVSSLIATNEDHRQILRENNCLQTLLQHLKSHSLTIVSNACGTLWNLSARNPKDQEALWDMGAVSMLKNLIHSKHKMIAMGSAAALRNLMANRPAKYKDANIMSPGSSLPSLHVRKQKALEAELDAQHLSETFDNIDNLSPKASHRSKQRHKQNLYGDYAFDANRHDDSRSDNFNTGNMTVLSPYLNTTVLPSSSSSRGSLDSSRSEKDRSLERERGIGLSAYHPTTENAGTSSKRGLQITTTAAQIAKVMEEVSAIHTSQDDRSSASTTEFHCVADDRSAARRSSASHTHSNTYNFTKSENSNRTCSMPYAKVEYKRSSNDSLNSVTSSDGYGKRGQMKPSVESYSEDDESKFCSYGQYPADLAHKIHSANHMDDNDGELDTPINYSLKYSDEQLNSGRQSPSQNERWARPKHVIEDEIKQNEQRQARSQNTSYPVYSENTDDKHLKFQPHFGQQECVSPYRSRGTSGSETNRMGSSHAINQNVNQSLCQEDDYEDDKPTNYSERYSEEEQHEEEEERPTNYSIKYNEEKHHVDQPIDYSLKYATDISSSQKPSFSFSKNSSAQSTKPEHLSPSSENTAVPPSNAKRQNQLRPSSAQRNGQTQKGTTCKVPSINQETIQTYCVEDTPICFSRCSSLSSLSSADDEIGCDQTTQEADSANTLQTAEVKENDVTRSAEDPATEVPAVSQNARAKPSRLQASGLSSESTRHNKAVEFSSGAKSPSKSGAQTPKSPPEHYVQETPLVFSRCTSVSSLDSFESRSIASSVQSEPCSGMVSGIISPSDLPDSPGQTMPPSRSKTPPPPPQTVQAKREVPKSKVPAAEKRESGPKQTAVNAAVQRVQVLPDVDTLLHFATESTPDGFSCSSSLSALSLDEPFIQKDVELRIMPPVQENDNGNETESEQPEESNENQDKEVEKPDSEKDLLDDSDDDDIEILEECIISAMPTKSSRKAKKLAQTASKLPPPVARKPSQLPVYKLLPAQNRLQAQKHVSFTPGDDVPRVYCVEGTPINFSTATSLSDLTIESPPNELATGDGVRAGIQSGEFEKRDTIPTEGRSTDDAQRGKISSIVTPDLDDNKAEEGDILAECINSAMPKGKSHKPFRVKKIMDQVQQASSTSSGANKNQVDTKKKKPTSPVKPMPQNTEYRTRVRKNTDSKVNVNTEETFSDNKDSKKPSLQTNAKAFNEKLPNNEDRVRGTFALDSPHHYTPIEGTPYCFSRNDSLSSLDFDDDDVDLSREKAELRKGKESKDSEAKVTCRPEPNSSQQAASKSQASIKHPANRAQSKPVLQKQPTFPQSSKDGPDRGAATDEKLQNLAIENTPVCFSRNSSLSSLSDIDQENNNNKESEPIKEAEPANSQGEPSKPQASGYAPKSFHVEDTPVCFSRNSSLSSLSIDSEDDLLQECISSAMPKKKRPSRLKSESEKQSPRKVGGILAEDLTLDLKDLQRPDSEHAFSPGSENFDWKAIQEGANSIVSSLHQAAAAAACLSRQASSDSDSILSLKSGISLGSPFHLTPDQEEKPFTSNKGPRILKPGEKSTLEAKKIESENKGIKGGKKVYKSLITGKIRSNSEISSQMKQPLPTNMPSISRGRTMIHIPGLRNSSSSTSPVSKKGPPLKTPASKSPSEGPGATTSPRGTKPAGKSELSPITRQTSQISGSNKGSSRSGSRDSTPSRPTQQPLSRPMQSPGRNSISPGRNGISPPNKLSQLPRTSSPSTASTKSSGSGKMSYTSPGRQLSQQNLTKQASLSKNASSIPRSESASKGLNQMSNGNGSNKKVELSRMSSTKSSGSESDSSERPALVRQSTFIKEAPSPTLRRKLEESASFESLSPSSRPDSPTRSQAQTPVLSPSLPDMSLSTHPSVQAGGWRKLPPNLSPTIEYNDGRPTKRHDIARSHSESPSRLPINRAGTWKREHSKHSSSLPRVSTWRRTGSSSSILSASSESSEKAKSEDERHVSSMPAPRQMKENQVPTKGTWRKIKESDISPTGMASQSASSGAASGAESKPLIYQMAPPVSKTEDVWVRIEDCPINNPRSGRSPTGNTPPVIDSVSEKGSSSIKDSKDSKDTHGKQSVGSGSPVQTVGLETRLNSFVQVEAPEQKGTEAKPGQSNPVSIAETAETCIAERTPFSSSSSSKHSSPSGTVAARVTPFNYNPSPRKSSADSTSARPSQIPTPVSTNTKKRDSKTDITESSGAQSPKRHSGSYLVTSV
UniProt P25054: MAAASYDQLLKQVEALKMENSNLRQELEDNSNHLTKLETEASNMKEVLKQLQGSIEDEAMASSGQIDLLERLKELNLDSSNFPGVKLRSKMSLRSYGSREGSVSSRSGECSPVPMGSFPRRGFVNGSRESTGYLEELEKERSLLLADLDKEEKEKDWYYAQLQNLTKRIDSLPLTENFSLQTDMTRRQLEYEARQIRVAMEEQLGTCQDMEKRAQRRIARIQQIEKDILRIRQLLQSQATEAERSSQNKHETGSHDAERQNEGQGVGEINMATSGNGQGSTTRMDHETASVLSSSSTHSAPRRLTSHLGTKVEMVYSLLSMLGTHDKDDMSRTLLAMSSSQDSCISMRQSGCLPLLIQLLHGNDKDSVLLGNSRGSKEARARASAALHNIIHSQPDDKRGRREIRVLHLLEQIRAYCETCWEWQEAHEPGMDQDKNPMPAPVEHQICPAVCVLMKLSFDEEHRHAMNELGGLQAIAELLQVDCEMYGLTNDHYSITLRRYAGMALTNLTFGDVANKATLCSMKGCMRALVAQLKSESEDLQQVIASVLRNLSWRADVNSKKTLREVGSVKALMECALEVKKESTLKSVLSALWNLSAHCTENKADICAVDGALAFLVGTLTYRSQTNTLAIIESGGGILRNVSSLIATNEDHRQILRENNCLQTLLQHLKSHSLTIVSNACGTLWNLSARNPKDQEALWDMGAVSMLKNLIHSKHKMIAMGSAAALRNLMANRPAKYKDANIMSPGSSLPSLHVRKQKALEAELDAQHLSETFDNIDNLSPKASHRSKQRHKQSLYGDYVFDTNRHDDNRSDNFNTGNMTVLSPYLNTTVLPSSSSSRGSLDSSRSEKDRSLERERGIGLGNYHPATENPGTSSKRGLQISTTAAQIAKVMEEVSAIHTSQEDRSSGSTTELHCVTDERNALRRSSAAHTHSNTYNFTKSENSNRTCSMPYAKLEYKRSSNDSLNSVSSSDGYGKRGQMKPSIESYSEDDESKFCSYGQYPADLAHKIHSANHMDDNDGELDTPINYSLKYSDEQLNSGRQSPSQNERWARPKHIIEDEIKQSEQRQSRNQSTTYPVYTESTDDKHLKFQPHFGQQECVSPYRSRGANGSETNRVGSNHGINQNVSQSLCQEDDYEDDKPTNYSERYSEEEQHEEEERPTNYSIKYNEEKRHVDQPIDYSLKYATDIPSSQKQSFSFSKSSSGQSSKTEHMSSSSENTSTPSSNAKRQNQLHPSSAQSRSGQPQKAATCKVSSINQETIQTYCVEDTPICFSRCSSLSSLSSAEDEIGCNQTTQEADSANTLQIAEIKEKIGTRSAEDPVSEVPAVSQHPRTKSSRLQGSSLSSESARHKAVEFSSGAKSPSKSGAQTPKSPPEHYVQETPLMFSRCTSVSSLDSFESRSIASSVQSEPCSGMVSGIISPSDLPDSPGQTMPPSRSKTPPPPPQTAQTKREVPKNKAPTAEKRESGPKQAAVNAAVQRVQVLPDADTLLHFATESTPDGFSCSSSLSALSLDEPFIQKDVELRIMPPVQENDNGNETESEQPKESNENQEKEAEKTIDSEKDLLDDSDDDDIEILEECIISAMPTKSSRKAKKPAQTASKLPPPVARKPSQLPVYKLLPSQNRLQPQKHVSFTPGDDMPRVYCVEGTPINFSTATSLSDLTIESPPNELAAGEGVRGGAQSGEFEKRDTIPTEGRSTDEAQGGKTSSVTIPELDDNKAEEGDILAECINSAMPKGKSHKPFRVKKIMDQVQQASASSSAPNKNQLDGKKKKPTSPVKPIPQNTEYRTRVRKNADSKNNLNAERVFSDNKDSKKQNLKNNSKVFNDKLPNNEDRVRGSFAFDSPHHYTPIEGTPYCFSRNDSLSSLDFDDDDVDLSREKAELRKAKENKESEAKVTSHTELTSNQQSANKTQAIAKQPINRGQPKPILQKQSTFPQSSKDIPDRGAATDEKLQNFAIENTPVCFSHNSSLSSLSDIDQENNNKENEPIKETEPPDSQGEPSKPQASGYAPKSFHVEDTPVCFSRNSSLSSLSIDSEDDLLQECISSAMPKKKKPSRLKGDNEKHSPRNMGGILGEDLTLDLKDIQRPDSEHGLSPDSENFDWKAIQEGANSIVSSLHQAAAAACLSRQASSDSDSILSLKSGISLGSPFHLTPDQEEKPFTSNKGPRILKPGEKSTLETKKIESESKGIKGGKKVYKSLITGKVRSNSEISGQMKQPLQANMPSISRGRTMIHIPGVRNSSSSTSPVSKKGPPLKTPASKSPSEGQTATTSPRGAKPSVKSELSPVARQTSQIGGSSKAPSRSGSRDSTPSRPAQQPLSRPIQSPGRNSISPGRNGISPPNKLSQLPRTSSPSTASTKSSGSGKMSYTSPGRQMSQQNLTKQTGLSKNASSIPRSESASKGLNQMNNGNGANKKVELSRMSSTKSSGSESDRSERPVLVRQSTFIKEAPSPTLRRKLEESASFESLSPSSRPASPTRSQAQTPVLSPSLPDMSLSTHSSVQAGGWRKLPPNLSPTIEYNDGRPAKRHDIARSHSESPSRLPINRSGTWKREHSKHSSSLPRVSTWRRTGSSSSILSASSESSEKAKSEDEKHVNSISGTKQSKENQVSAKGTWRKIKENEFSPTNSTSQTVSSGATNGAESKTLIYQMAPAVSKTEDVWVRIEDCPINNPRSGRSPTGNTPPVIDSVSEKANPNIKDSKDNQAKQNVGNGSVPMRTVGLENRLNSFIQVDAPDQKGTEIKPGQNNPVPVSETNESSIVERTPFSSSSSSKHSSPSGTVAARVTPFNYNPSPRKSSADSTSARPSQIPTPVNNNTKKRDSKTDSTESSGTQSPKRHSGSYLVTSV
UniProt P12367: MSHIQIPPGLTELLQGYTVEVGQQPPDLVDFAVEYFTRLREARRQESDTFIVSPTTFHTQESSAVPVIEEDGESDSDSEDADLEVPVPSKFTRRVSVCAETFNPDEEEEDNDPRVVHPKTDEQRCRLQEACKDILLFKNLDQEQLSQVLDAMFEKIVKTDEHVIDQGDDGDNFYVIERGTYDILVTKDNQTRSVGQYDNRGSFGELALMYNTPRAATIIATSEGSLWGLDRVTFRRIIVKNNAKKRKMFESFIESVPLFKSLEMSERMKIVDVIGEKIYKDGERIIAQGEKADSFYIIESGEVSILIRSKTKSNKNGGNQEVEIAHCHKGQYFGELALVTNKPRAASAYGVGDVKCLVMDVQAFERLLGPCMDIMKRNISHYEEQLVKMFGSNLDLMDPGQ
UniProt P13861: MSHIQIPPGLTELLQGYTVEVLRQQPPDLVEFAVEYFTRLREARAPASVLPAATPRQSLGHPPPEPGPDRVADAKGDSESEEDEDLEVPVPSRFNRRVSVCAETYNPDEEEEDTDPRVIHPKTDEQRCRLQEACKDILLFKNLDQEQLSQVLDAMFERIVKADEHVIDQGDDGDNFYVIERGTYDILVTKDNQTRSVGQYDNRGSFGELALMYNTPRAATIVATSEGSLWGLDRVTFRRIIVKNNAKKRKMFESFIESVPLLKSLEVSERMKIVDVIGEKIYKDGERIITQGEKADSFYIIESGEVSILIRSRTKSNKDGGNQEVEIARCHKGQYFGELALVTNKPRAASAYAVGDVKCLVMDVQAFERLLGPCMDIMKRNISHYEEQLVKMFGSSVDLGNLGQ

No constants are given. Whether binding was seen depends on the method and setting. Binding seen in cells or lysates may run through a third protein. Some binding calls cover weakened binding; strength is not graded here.

In experiment [1] the target is adenomatous polyposis coli (APC) (mouse (endogenous in RAW 264.7)) (UniProt Q61315). Kind of experiment: co-IP; endogenous proteins of RAW 264.7 lysate; IP with rabbit antibodies against APC or against PKA cat (control rabbit IgG), 2 h at 4 °C, protein G magnetic beads; binding buffer 20 mM HEPES pH 7.9, 30 mM MgCl2, 10% glycerol, 0.2% Nonidet P-40; immunoblot.
The target in experiment [2] is adenomatous polyposis coli (APC), human (human (endogenous in primary macrophages)) (UniProt P25054). Kind of experiment: co-IP; protein extracts of primary human macrophages; IP with IgG against APC (control IgG), immunoblot for PKA RII.
The target of experiment [3] is adenomatous polyposis coli (APC) (mouse (endogenous in RAW 264.7)) (UniProt Q61315). Briefly: co-IP; lysate of RAW 264.7 cells transduced with retrovirus for RII HA-tagged or ΔD/D RII HA-tagged; IP with rabbit IgG against APC (control rabbit IgG), immunoblot for the HA-tag.

As for “PKA regulatory subunit RII (from UniProt P12367 1-401)”, the binding result in experiment [1] is listed as “binds”.

Regarding “PKA regulatory subunit RII, human (from UniProt P13861 1-404)”, the binding result in experiment [2] is reported as “binds”.

In the case of “RII HA-tagged (from UniProt P12367 1-401)”, the binding entry in experiment [3] was “binds”.
